According to US20170233449A1:
Where a chain is given by its changes, count along the chain named. These are yes or no findings as the source states them, for the method shown. Some results given as binding are weak or reduced against the parent protein; the word gives no strength.

B1: R7H11 (rat hybridoma antibody) (antibody, V domains shown)
VH: QVQLKESGPGLLLSSETLSLTCTVSGFSLTSYEVSWVRQLPGRGLEWMGRVWIGGDTDYNSDLKSRLSISRDIAKSQVFLKMSNLKTEDTGTYYCARAYGFNYWSFDFWGPGTMVTVSS
VL: GQFTLTQPKSVSGSLRSTITIPCERSSGDIGDNYVTWYQQHLGRPPLNVIYADDQRPSEVSDRFSGSIDSSSNSASLTITNLQMDDEADYFCQSYDSNTDIIFGGGTKVTVL
B2: R10B10 (rat hybridoma antibody) (antibody, V domains shown)
VH: QVQLKESGPGLVQPSETLSLTCTVSGFSLTSYGVNWVRQPPGKGLEWMGRIWNDGSIDYNSALKSRLSISRDTSKGQVFLKMNSLQTEDTAIYFCARGPYNNYWYFDFWGPGTMVTVLS
VL: B1 VL with T36S, L47I, T99I, V109L

Tests used:
[1] = biological target: cynomolgus monkey CD38 extracellular domain (ECD), tagged (cynomolgus monkey); assay: ELISA, hybridoma supernatant coated, biotinylated CD38 ED in solution
[2] = biological target: human CD38 extracellular domain (ECD), tagged (human); assay: as above

| Binder | binding [1] | binding [2] |
| --- | --- | --- |
| B1 | binds | binds |
| B2 | binds | binds |
